Laboratory results: PubChem BioAssay AID1224830 (NIAID, 2016)
The deposit covers about 18,000 reagents; shown is a random part of them. About 2,900 of them (16%) were called active. 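Calls are made per well; low scores hint the gene aids the LPS response, high scores that it dampens it.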 Repeated entries: four replicate wells of each siRNA pool. No sequences are given here.

Purpose: 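Regulators of TLR4 signalling towards TNF-alpha in macrophage-like cells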 (primary screen)
System: human THP-1 monocytic leukaemia cells, TNF dual-luciferase reporter clone, PMA-differentiated to macrophage-like cells
Knock-down reagent: siRNA pool against human genes, 50 nM
Duration: LPS for 4 h, given about 3 days after siRNA transfection
Conditions: bacterial LPS (TLR4 ligand), 10 ng/ml
Read-out: 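TNF firefly reporter luminescence divided by renilla, normalised to the plate median, then turned into a robust z-score for each replicate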
Scale: TNF reporter robust z-score: higher = stronger TNF reporter response to LPS
Hit rule: 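a well is active when its z-score exceeds 2.8 or falls below -1.5; control wells carry no call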

Depletion of FLG2 (GeneID 388698) came out at: TNF reporter robust z-score 0.04; inactive.
Against FLG2 (GeneID 388698), the entry reads TNF reporter robust z-score 0.13; inactive.
Against FLG2 (GeneID 388698) the deposit lists TNF reporter robust z-score 0.79; inactive.
With knock-down of FLG2 (GeneID 388698) the results were TNF reporter robust z-score -0.41; inactive.
With knock-down of MTERF2 (GeneID 80298), the screen gave TNF reporter robust z-score -0.9; inactive.
MTERF2 (GeneID 80298) showed TNF reporter robust z-score -1; inactive.
After knock-down of MTERF2 (GeneID 80298), the record shows TNF reporter robust z-score -0.37; inactive.
Depletion of MTERF2 (GeneID 80298) came out at: TNF reporter robust z-score -0.47; inactive.
Depletion of TNFSF8 (GeneID 944) gave: TNF reporter robust z-score -0.68; inactive.
After knock-down of TNFSF8 (GeneID 944) the results were TNF reporter robust z-score 0.29; inactive.
For TNFSF8 (GeneID 944) the deposit lists TNF reporter robust z-score -0.74; inactive.
For TNFSF8 (GeneID 944) the deposit lists TNF reporter robust z-score -0.59; inactive.
NIPSNAP3B (GeneID 55335) gave TNF reporter robust z-score -0.4; inactive.
NIPSNAP3B (GeneID 55335) scored TNF reporter robust z-score 0.28; inactive.
With knock-down of NIPSNAP3B (GeneID 55335), the record shows TNF reporter robust z-score 0.16; inactive.
NIPSNAP3B (GeneID 55335) scored TNF reporter robust z-score 0.62; inactive.
Depletion of RAMP3 (GeneID 10268) resulted in: TNF reporter robust z-score -0.25; inactive.
After knock-down of RAMP3 (GeneID 10268), the screen gave TNF reporter robust z-score 0.46; inactive.
With knock-down of RAMP3 (GeneID 10268) the results were TNF reporter robust z-score -0.37; inactive.
After knock-down of RAMP3 (GeneID 10268), the record shows TNF reporter robust z-score -0.08; inactive.
Depletion of LECT2 (GeneID 3950) gave: TNF reporter robust z-score 3.86; active.
After knock-down of LECT2 (GeneID 3950), the screen gave TNF reporter robust z-score 4.55; active.
With knock-down of LECT2 (GeneID 3950) the results were TNF reporter robust z-score 3.19; active.
For LECT2 (GeneID 3950) the deposit lists TNF reporter robust z-score 1.97; inactive.

Hits (from the list above):
LECT2 (GeneID 3950) | TNF reporter robust z-score = 3.86; Outcome = active
LECT2 (GeneID 3950) | TNF reporter robust z-score = 4.55; Outcome = active
LECT2 (GeneID 3950) | TNF reporter robust z-score = 3.19; Outcome = active

The list goes on:
CDC42SE2 (GeneID 56990) scored TNF reporter robust z-score -0.91; inactive.
With knock-down of CDC42SE2 (GeneID 56990), the record shows TNF reporter robust z-score -0.59; inactive.
For CDC42SE2 (GeneID 56990) the deposit lists TNF reporter robust z-score -0.41; inactive.
CDC42SE2 (GeneID 56990) gave TNF reporter robust z-score -0.77; inactive.
Knock-down of PLVAP (GeneID 83483) resulted in: TNF reporter robust z-score 0.22; inactive.
After knock-down of PLVAP (GeneID 83483) the results were TNF reporter robust z-score -1; inactive.
Silencing of PLVAP (GeneID 83483) resulted in: TNF reporter robust z-score -0.23; inactive.
PLVAP (GeneID 83483) scored TNF reporter robust z-score -0.7; inactive.
With knock-down of CCL3L1 (GeneID 6349), the screen gave TNF reporter robust z-score -0.24; inactive.
After knock-down of CCL3L1 (GeneID 6349), the screen gave TNF reporter robust z-score -0.03; inactive.
With knock-down of CCL3L1 (GeneID 6349) the results were TNF reporter robust z-score 0.18; inactive.
Against CCL3L1 (GeneID 6349) the deposit lists TNF reporter robust z-score 3.25; active.
Knock-down of KPNA1 (GeneID 3836) gave: TNF reporter robust z-score 0.43; inactive.
For KPNA1 (GeneID 3836), the entry reads TNF reporter robust z-score 1.32; inactive.
After knock-down of KPNA1 (GeneID 3836), the record shows TNF reporter robust z-score 0.1; inactive.
For KPNA1 (GeneID 3836), the entry reads TNF reporter robust z-score 2; inactive.
For RBFOX2 (GeneID 23543), the entry reads TNF reporter robust z-score -0.45; inactive.
For RBFOX2 (GeneID 23543), the entry reads TNF reporter robust z-score -0.38; inactive.
Depletion of RBFOX2 (GeneID 23543) came out at: TNF reporter robust z-score -0.54; inactive.
Against RBFOX2 (GeneID 23543), the values are TNF reporter robust z-score 0.25; inactive.
HMGB2 (GeneID 3148) showed TNF reporter robust z-score 2.02; inactive.
HMGB2 (GeneID 3148) showed TNF reporter robust z-score -0.13; inactive.
For HMGB2 (GeneID 3148), the values are TNF reporter robust z-score 2.38; inactive.
HMGB2 (GeneID 3148) showed TNF reporter robust z-score 4.16; active.
Depletion of TMCO6 (GeneID 55374) resulted in: TNF reporter robust z-score 0.75; inactive.
Silencing of TMCO6 (GeneID 55374) gave: TNF reporter robust z-score 0.52; inactive.
After knock-down of TMCO6 (GeneID 55374) the results were TNF reporter robust z-score 0.39; inactive.
Against TMCO6 (GeneID 55374), the entry reads TNF reporter robust z-score 1.2; inactive.
After knock-down of KIFBP (GeneID 26128), the screen gave TNF reporter robust z-score -0.44; inactive.
KIFBP (GeneID 26128) showed TNF reporter robust z-score -0.67; inactive.
KIFBP (GeneID 26128) scored TNF reporter robust z-score -0.17; inactive.
Silencing of KIFBP (GeneID 26128) gave: TNF reporter robust z-score 1.73; inactive.
After knock-down of MLX (GeneID 6945) the results were TNF reporter robust z-score -0.39; inactive.
Against MLX (GeneID 6945) the deposit lists TNF reporter robust z-score -0.07; inactive.
For MLX (GeneID 6945), the values are TNF reporter robust z-score -0.19; inactive.
With knock-down of MLX (GeneID 6945), the record shows TNF reporter robust z-score 0; inactive.
